For three molecules, binding results are on record in PMC10111864.

Results are given in words; binding and its absence hold for the method and conditions named. Binding seen in cells or lysates may run through a third protein. Here binding means that the protein was enriched with, or labelled near, the bait; the list need not be complete. Tags and fused reporters may be left off the sequences shown.

T1: KIF1C (endogenous, untagged) (mouse (endogenous in YUMM1.7)) (UniProt O35071)
T1 sequence: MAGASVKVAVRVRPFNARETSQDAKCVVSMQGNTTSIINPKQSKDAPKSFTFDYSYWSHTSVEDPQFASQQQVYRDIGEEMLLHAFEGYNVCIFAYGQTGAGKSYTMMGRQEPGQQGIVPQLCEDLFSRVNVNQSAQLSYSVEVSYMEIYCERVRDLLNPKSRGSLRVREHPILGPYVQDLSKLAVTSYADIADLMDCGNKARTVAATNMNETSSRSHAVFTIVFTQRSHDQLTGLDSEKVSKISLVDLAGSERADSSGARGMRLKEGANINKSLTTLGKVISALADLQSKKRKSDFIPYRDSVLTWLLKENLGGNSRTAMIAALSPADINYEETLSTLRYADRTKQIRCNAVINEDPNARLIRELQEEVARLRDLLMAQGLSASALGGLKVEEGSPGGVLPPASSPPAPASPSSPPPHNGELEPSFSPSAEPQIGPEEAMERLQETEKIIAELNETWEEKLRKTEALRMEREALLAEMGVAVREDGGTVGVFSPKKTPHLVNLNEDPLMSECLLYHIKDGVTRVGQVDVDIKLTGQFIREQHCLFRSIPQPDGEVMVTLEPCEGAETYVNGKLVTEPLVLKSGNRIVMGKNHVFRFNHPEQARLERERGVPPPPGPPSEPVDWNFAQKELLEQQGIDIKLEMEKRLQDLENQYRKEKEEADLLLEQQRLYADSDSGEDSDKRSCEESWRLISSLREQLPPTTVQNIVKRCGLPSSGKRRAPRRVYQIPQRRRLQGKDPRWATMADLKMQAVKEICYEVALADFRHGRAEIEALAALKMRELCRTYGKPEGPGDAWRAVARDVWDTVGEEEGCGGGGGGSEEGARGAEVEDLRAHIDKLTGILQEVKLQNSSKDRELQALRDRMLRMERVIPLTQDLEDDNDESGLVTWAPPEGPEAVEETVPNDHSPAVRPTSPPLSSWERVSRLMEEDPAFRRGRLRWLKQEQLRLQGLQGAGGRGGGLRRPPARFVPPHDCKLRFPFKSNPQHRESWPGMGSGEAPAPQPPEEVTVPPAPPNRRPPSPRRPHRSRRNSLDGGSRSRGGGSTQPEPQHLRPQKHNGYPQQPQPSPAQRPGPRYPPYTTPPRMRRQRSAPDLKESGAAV

B1: FLII (protein, UniProt Q9JJ28 1-1271)
chain: MEATGVLPFVRGVDLSGNDFKGGYFPENVKAMTSLRWLKLNRTGLCYLPEELAALQKLEHLSVSHNHLTTLHGELSSLPSLRAIVARANSLKNSGVPDDIFKLDDLSVLDLSHNQLTECPRELENAKNMLVLNLSHNGIDSIPNQLFINLTDLLYLDLSENRLESLPPQMRRLVHLQTLVLNGNPLLHAQLRQLPAMMALQTLHLRNTQRTQSNLPTSLEGLSNLSDVDLSCNDLTRVPECLYTLPSLRRLNLSSNQIAELSLCIDQWVHLETLNLSRNQLTSLPSAICKLTKLKKLYLNSNKLDFDGLPSGIGKLTSLEEFMAANNNLELIPESLCRCPKLKKLVLNKNRLVTLPEAIHFLTEIQVLDVRENPSLVMPPKPADRTAEWYNIDFSLQNQLRLAGASPATVAAAAAVGSGSKDPLARKMRLRRRKDSAQDVQAKQVLKGMSDVAQEKNKNQEESIDARAPGGKVRRWDQGLEKPRLDYSEFFTEDVGQLPGLTIWQIENFVPVLVEEAFHGKFYEADCYIVLKTFLDDSGSLNWEIYYWIGGEATLDKKACSAIHAVNLRNYLGAECRTVREEMGDESEEFLQVFDNDISYIEGGTASGFYTVEDTHYVTRMYRVYGKKNIKLEPVPLKGSSLDPRFVFLLDQGLDIYVWRGAQATLSNTTKARLFAEKINKNERKGKAEITLLVQGQEPPGFWDVLGGEPSEIKNHVPDDFWPPQPKLYKVGLGLGYLELPQINYKLSVEHKKRPKVELMPGMRLLQSLLDTRCVYILDCWSDVFIWLGRKSPRLVRAAALKLGQELCGMLHRPRHTVVSRSLEGTEAQVFKAKFKNWDDVLTVDYTRNAEAVLQGQGLSGKVKRDTEKTDQMKADLTALFLPRQPPMPLAEAEQLMEEWNEDLDGMEGFVLEGRKFTRLPEEEFGHFYTQDCYVFLCRYWVPVEYEEEEKTEDKEGKASAEAREGEEAAAEAEEKQPEEDFQCIVYFWQGREASNMGWLTFTFSLQKKFESLFPGKLEVVRMTQQQENPKFLSHFKRKFIIHRGKRKVTQGTLQPTLYQIRTNGSALCTRCIQINTDSSLLNSEFCFILKVPFESEDNQGIVYAWVGRASDPDEAKLAEDILNTMFDASYSKQVINEGEEPENFFWVGIGAQKPYDDDAEYMKHTRLFRCSNEKGYFAVTEKCSDFCQDDLADDDIMLLDNGQEVYMWVGTQTSQVEIKLSLKACQVYIQHTRSKEHERPRRLRLVRKGNEQRAFTRCFHAWSTFRQAPA
B2: ATL3 (protein, UniProt Q91YH5 1-541)
chain: MLSPQRTAAVASRGAGDAMENGKPGPVQVVLVHKEQHSFELEERALASVLLQDHIRDLDVVVVSVAGAFRKGKSFILDFMLRYLYSQKEGGHSDWLGDPEEPLTGFSWRGGSDPETTGIQIWSEVFTVKKPCGKKVAVVLMDTQGAFDSQSTVKDCATIFALSTMTSSVQIYNLSQNIQEDDLQQLQLFTEYGRLAMDEIFQKPFQTLMFLIRDWSFPYEYNYGLQGGMAFLDKRLHVKEHQHEEIQNVRNHIHSCFSDVTCFLLPHPGLQVATSPNFDGKLKDIASEFKEQLQALIPYVLNPSKLMEKEINGSKVTCRGLLEYFKAYIKIYQGEDLPHPKSMLQATAEANNLAAAASAKDIYYNNMEEICGGEKPYLSPDILEEKHLEFKQLALDHFKKIKKMGGKDFSFRYQQELEEEIKELYENFCKHNGSKNVFSTFRTPAVLFTGIAALYIASGFTGFIGLEVVAQLFNCMVGLLLIALLTWGYIRYSGQYRELGGAIDSGAAYVLEQASSHIGNSTQAAVRDAVVGRPPADKKSQ
B3: RAI14 (protein, UniProt Q9EP71 1-979)
chain: MKSLKAKFRKSDTNEWNKNDDRLLQAVENGDAEKVASLLGKKGASATKHDSEGKTAFHLAAAKGHVECLKVMVTHGVDVTAQDSSGHSALHVAAKNGHPECIRKLLQYKSPAENIDNSGKTALHYAAAQGCLQAVQLLCEHKSPINLKDLDGNIPLLVAVQNGHSEACHFLLDHGADVNSRDKNGRTALMLACETGSSNTVDALIKKGADLSLVDSLGHNALHYSKLSENAGIQNLLLSKISQDADLKTPTKPKQHDQVSKISSERSGTPKKRKAPPPPISPTQLSDVSSPRSITSTPLSGKESVFFAEAPFKAEISSIQENKDRLSDSTAGADSLLDISSEADQQDLLVLLQAKVASLTLHNKELQDKLQAKSPKDKEAEADLSFQSFHSTQTDLAPSPGKASDIPSSDAKSSPPVEHPAGTSTTDNDVIIRQLQDSLHDLQKRLESSEAEKKQLQDELQSQRTDTLCLNNTEISENGSDLSQKLKETQSKYEEAMKEVLSVQKQMKLGLLSQESADGYSHLREAPADEDIDTLKQDLQKAVEESARNKERVRELETKLAEKEQAEATKPPAEACEELRSSYCSVIENMNKEKAFLFEKYQQAQEEIMKLKDTLKSQMPQEAPDDSGDMKEAMNRMIDELNKQVSELSQLYREAQAELEDYRKRKSLEDAAEYIHKAEHERLMHVSNLSRAKSEEALSEMKSQYSKVLNELTQLKQLVDAHKENSVSITEHLQVITTLRTTAKEMEEKISALTGHLANKEAEVAKLEKQLAEEKAAVSDAMVPKSSYEKLQASLESEVNALATKLKESVREREKAHSEVAQVRSEVSQARREKDNIQTLLKAKEQEVTALVQKFQRAQEELAGMRRCSETSSKLEEDKDEKINEMTREVLKLKEALNSLSQLSYSTSSSKRQSQQLDLLQQQVKQLQNQLAECKKHHQEVISVYRMHLLYAVQGQMDEDVQKVLKQILTMCKNQSQKK

The assay concerns the target T1, KIF1C (endogenous, untagged) (mouse (endogenous in YUMM1.7)). The assay is described as follows: affinity purification with mass spectrometry; IP of endogenous KIF1C with α-KIF1C antibody (Bethyl A301-072A) and protein G Dynabeads from lysates of Kif1c+/+ and Kif1c ΔGA1,2 YUMM1.7 cells, Kif1c LOF cells as negative control; 4.5-5 mg total protein; washes 50 mM Tris pH 7.4, 150 mM NaCl, 0.02% NP-40; hits more than threefold enriched over ….
B1: the binding result is reported as “binds”. With B2, the binding result is listed as “binds”.

With B3, the binding entry is reported as “binds”.
